# Assay results as given in the supplement of paper PMC12067093, “Discovery and optimisation of a covalent ligand for TRIM25 and its application to targeted protein ubiquitination” (Chemical Science, 2025).
# Chains of the proteins cited; added tags and fusions are not shown. Lines headed by an entry give the natural chain unless they say otherwise; changes in a name come on top.
# UniProt Q9NT62, whole entry, looked up: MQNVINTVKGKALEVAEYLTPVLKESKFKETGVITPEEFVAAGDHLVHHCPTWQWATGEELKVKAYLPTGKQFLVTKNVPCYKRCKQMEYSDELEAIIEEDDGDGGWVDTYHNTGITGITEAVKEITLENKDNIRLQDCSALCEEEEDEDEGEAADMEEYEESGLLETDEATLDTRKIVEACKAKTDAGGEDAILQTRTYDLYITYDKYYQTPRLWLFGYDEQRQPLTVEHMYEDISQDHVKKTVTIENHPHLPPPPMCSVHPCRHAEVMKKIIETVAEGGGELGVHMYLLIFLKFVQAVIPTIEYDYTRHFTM
# UniProt Q6PL18: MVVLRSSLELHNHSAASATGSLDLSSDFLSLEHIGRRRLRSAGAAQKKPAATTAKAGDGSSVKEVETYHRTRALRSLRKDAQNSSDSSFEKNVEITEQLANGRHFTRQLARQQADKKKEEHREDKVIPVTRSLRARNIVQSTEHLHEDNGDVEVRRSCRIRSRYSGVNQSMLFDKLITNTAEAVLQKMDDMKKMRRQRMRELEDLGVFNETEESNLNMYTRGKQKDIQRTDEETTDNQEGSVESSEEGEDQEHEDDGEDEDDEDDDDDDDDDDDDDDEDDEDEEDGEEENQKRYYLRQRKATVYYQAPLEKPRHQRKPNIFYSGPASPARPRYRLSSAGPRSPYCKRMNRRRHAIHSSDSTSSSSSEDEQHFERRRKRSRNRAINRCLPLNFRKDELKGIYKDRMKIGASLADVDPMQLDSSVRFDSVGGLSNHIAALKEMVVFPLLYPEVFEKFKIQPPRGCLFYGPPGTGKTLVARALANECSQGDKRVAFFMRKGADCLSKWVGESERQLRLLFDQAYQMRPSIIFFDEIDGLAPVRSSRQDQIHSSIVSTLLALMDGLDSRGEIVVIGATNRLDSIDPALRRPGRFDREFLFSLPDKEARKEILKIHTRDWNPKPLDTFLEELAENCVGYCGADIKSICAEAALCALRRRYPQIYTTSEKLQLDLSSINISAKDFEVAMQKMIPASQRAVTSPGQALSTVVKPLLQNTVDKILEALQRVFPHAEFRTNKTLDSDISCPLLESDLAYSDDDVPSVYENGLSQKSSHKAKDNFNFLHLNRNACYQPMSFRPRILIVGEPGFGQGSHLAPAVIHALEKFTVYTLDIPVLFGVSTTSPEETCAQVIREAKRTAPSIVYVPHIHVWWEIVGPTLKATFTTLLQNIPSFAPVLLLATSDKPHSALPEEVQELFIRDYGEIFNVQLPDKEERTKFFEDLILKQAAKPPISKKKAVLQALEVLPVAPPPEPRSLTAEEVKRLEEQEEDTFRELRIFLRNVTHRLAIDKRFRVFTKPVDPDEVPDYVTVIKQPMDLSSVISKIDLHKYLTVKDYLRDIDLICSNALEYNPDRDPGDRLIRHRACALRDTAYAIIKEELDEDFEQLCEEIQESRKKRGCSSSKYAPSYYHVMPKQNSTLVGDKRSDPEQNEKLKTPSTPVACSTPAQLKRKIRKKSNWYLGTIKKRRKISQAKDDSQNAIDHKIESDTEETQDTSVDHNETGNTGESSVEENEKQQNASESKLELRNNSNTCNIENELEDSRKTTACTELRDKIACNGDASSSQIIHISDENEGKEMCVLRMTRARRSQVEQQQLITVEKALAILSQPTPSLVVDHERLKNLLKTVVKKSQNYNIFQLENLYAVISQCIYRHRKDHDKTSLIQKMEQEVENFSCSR
# UniProt Q76L83: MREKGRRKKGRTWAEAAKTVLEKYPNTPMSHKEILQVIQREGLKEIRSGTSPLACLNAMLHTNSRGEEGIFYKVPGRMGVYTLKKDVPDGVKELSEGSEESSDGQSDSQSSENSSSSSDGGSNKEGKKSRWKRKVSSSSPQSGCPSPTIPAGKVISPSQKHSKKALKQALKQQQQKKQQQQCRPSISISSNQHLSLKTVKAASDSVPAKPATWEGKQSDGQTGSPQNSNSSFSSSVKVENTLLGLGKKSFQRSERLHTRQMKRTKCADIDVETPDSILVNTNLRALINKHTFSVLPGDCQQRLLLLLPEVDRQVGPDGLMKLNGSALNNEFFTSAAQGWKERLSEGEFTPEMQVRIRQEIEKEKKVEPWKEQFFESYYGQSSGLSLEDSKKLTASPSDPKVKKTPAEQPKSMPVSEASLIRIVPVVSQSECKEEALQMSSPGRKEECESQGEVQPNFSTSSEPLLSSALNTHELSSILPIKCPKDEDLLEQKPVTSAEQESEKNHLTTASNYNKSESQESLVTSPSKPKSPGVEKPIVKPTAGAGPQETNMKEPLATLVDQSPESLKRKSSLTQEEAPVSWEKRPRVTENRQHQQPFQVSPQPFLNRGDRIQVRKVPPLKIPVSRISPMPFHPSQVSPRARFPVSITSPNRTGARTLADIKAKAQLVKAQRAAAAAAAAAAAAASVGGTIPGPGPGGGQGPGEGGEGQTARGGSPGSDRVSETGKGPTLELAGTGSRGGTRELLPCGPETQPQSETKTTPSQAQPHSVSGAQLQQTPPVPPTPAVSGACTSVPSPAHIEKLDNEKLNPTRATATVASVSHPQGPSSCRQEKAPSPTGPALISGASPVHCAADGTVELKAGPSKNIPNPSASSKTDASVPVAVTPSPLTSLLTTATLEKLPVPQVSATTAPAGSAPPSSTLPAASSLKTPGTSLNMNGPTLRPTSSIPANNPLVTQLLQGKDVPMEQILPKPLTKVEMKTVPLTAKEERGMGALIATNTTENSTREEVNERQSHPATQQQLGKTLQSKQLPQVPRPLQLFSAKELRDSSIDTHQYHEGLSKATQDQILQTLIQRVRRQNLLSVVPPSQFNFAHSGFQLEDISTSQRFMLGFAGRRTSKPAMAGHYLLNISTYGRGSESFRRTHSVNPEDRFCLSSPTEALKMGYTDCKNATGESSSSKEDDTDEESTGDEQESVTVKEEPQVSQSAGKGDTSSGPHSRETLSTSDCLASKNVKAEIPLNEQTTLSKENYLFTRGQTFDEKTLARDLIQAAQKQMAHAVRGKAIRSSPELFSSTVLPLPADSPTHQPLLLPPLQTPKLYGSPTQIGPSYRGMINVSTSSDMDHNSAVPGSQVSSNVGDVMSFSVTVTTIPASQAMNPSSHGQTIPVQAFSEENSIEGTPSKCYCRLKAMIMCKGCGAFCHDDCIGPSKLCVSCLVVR
# UniProt P61421, whole entry, looked up: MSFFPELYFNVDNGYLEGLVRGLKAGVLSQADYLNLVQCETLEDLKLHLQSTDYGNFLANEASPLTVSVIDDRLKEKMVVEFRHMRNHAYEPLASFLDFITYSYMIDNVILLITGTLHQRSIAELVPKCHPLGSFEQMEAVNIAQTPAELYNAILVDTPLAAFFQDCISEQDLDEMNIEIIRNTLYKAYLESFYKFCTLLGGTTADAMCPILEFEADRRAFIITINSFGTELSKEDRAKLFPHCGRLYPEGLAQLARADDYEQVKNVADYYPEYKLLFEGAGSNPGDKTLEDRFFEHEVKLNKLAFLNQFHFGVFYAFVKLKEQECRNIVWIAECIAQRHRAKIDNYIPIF
# UniProt Q93084: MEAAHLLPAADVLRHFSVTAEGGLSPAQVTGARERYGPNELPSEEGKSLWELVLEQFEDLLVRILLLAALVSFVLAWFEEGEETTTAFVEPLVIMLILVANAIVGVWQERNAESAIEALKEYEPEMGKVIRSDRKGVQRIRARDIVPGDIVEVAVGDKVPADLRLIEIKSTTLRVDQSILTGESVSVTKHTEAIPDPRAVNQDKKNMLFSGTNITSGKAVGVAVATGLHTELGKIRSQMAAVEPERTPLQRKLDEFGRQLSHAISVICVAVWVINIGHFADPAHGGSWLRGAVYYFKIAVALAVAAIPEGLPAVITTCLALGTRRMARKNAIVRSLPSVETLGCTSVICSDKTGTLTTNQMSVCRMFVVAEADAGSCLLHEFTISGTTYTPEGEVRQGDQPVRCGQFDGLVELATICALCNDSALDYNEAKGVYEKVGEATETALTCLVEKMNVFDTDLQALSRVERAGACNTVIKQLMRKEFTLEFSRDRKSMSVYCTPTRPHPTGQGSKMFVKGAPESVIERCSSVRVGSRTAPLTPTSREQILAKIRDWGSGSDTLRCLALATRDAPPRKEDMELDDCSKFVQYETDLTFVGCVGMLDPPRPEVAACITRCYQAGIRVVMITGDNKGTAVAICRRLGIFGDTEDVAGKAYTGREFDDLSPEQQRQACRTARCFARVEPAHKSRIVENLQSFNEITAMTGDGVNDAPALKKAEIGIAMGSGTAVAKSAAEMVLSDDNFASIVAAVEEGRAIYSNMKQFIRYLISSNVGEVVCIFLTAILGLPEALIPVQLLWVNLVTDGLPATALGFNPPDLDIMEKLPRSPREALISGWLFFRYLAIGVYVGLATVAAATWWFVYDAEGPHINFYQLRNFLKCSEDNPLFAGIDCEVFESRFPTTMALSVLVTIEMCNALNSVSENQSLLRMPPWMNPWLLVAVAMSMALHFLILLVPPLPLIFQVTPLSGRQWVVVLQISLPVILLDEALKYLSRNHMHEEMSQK
# UniProt Q96BY7: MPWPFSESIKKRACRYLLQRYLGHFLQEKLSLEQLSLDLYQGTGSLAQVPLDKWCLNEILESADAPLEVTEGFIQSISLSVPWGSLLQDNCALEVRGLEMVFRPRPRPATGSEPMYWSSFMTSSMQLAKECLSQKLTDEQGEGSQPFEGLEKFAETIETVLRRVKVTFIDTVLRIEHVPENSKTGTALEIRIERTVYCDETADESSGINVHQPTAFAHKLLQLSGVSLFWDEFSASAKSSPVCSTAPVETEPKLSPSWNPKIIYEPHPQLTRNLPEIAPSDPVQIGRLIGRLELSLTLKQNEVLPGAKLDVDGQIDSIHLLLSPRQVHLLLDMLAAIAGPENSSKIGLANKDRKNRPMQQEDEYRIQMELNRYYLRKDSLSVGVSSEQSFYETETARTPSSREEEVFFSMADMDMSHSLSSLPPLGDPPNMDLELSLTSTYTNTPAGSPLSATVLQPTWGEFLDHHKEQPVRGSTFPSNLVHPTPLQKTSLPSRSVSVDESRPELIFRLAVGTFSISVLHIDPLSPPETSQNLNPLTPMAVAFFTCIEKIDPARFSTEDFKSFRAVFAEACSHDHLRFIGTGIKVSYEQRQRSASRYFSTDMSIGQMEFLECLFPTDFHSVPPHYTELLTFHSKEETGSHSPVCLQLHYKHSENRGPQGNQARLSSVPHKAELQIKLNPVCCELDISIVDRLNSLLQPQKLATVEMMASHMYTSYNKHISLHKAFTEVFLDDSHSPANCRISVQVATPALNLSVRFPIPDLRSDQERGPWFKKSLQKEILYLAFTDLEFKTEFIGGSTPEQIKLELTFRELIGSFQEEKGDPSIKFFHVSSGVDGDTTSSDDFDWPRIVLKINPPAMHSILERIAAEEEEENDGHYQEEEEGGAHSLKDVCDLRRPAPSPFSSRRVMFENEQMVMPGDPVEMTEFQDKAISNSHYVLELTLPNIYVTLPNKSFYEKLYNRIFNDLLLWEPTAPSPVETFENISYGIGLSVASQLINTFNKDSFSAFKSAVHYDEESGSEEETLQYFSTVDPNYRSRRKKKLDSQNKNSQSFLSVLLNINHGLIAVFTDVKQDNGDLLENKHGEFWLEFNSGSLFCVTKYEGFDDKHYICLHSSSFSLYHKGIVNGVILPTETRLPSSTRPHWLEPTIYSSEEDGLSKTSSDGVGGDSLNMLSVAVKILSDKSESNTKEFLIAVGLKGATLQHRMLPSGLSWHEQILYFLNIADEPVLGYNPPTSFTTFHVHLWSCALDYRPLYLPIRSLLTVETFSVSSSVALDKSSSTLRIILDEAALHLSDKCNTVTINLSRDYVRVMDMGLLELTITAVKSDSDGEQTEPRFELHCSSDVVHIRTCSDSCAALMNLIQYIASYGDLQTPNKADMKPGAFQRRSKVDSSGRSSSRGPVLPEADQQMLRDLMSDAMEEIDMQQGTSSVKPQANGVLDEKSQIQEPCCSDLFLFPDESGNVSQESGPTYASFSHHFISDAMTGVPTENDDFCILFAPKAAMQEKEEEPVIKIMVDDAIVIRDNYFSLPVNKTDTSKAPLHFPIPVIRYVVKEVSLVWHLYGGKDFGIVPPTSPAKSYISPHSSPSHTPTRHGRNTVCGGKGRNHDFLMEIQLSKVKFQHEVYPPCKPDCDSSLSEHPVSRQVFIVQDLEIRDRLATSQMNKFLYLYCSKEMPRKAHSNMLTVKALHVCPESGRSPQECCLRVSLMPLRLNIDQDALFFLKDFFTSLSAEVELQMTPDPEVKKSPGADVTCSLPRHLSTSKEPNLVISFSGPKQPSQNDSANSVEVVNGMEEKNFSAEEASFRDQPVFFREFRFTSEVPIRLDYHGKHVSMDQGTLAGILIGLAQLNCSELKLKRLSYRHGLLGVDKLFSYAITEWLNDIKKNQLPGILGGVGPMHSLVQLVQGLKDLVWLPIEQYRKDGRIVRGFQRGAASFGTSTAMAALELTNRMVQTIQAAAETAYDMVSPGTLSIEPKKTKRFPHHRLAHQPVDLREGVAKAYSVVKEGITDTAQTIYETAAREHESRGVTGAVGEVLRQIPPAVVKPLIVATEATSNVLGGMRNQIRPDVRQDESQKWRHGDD
# This is one part of the list.
# Compound: CC1Cc2ccccc2N1C(=O)C1CCCN(C1)C(=O)CCl (mixture of isomers) [TRIM25 ligand 11 (diastereomer mixture)]
# Assay: probe-labelled cysteine peptide fold change vs DMSO (competition) (log2 fold change); higher = less target engagement (more negative = stronger competition)
# Conditions: THP-1, incubation time: 4 h
# 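Note: competitive chemoproteomic profiling in live THP-1 cells with an iodoacetamide desthiobiotin (IA-DTB) probe, comparing probe-labelled peptide intensities in compound-treated cells against DMSO-treated controls.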
Target,probe-labelled cysteine peptide fold change (10 µM),probe-labelled cysteine peptide fold change (50 µM)
ATG3_Q9NT62_264_TVTIENHPHLPPPPMCSVHPCR (UniProt Q9NT62),0.0537,0.153
ATF7IP2_Q5U623_220_QSDNILCSEDSGFVPVEK (UniProt Q5U623),-0.0613,-0.177
ASNA1_O43681_289_IDTHNIIVNQLVFPDPEKPCK (UniProt O43681),-0.0273,0.107
ATP2A2_P16615_635_GTAVAICR (UniProt P16615),-0.0341,0.163
ATAD2_Q6PL18_1270_IACNGDASSSQIIHISDENEGK (UniProt Q6PL18),0.15,-0.177
ASXL2_Q76L83_299_HTFSVLPGDCQQR (UniProt Q76L83),0.0929,-0.0666
ATP6V0D1_P61421_335_NIVWIAECIAQR (UniProt P61421),0.0847,0.315
ATPAF2_Q8N5M1_276_TAAGTLFIHLCSESTTVK (UniProt Q8N5M1),-0.156,0.117
ATP2A3_Q93084_471_AGACNTVIK (UniProt Q93084),-0.0532,-0.0445
ARRB1_P49407_59_RVYVTLTCAFR (UniProt P49407),-0.251,-0.0834
ATG7_O95352_524_QQGAGDLCPNHPVASADLLGSSLFANIPGYK (UniProt O95352),0.00963,-0.039
ATG2B_Q96BY7_1750_KSPGADVTCSLPR (UniProt Q96BY7),0.0995,-0.0451
ATL3_Q6DD88_256_NHIHSCFSDVTCFLLPHPGLQVATSPDFDGK (UniProt Q6DD88),0.0903,0.00582
ATAD1_Q8NBU5_229_AQFMSLWDGLDTDHSCQVIVMGATNRPQDLDSAIMR (UniProt Q8NBU5),-0.043,-0.0993
